No constants are given. Whether binding was seen depends on the method and setting. In cells and extracts the contact can be indirect. These calls come from enrichment with a bait or labelling near it, and not all partners need be listed.
Molecular target: T1, Mitogen-activated protein kinase phosphatase-4 (MKP-4) (human (endogenous in HCC tissue and HepG2)) (UniProt Q99956)
T1 sequence: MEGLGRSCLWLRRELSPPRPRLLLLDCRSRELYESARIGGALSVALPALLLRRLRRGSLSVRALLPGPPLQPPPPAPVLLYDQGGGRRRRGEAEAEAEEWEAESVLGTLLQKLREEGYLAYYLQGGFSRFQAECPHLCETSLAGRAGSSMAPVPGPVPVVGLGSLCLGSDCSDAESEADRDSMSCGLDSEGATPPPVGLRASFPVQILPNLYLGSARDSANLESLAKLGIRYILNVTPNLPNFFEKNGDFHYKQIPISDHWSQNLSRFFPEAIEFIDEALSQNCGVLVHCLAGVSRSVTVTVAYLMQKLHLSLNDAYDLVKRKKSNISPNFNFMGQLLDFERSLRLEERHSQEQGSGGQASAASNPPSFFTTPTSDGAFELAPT
Assay: affinity purification with mass spectrometry; HCC tissue lysate (25 mM Tris-HCl pH 7.5, 150 mM NaCl, 1 mM EDTA, 1% NP-40) immunoprecipitated with anti-MKP-4 antibody at 4 °C overnight, protein G Sepharose; gel bands analysed on an LTQ mass spectrometer

Sequences of proteins named here, by UniProt entry; tags and fusion partners are left off.
UniProt P27361: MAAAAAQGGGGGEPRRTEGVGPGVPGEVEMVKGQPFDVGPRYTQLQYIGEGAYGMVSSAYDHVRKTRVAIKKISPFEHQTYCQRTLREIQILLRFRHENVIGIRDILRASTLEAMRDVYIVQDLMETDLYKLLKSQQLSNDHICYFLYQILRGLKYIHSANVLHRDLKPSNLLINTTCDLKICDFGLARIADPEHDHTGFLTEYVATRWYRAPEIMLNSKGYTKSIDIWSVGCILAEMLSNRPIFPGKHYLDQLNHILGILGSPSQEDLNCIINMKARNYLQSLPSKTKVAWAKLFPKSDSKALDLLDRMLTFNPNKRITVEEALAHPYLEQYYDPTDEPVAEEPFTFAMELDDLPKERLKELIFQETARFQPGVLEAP
UniProt P28482: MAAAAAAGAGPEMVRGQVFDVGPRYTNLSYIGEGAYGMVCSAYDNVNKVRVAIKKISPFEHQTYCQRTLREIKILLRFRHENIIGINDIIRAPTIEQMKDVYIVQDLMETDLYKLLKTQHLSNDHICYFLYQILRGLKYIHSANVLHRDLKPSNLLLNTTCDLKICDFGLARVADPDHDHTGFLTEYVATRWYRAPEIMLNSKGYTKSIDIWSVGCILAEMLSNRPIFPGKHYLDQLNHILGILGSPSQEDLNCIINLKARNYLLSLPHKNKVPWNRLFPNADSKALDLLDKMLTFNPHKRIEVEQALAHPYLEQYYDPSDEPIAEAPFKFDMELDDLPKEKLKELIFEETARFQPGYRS

binding	Substance
binds	Extracellular signal-regulated kinase 1 (ERK1) (from UniProt P27361 1-379) (enzyme)
binds	Extracellular signal-regulated kinase 2 (ERK2) (from UniProt P28482 1-360) (enzyme)
